Measurements reported in PubChem BioAssay AID504804 (Drosophila RNAi Screening Center, 2011)

- Aim: 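Knock-downs shielding fly cells from apoptosis caused by DNA damage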 (primary screen)
- Cells: Drosophila Kc cells
- Knock-down reagent: long dsRNA against Drosophila genes, 0.5 µg dsRNA per well
- Time to read-out: 96 h (48 h knock-down, then 48 h drug)
- Challenge: doxorubicin 5 µg/ml for 48 h, added 48 h after dsRNA
- Measurement: 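Luminescent ATP counts per replicate, not normalised, reflecting viable cells after 48 h dsRNA knock-down followed by 48 h of 5 µg/ml doxorubicin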
- Reading the numbers: raw ATP luminescence: higher = more viable cells, protection from doxorubicin
- Hit rule: 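z-score of 2 or more over plate mean in both duplicates, retained only when retests and separate dsRNAs confirm the protection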
In all, the deposit lists about 19,000 reagents; shown is an unselected part of those with a known target gene and a result. Of all reagents, 47 (0.25%) got an active call. 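Signals are raw, not normalised; exact z-scores behind calls not deposited; actives needed confirmation, so some wells reaching 2 SD are inactive.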 A plus sign joins genes that one reagent is predicted to hit.

Target gene | dsRNA | SD above plate mean | raw ATP luminescence, replicate 1 | raw ATP luminescence, replicate 2 | call
ZC3H3 | DRSC10696 | – | 65880 | 66150 | inactive
CG16974 | DRSC02551 | – | 1.24e5 | 53780 | inactive
CG15725 | DRSC19691 | – | 3.24e5 | 3.17e5 | inactive
pAbp | DRSC07659 | – | 52113 | 63247 | inactive
GstT3 | DRSC20541 | – | 3.38e5 | 3.16e5 | inactive
Acbp6 | DRSC10217 | – | 54440 | 68933 | inactive
Acox3 | DRSC03251 | – | 25580 | 25533 | inactive
Tsp42Eg | DRSC06112 | – | 64297 | 62820 | inactive
vers | DRSC10715 | – | 29230 | 32860 | inactive
Gadd45 | DRSC06033 | – | 40067 | 78470 | inactive
CG14795 | DRSC18513 | – | 35920 | 35330 | inactive
spi | DRSC03618 | – | 64950 | 55450 | inactive
CG31205 | DRSC13438 | – | 1.50e5 | 1.85e5 | inactive
CG13314 | DRSC09985 | – | 67007 | 82353 | inactive
CG30339 | DRSC05168 | – | 85523 | 79980 | inactive
Cyp6w1 | DRSC04909 | – | 57697 | 57140 | inactive
SNRPG | DRSC20207 | – | 3.52e5 | 3.43e5 | inactive
Acbp3 | DRSC11022 | – | 65190 | 78223 | inactive
mRpS26 | DRSC10823 | at least 2 SD above plate mean | 1.04e5 | 83867 | inactive
Grl62c | DRSC07964 | – | 1.73e5 | 1.09e5 | inactive
Orct | DRSC16777 | – | 35823 | 37037 | inactive
CG8187 | DRSC07099 | – | 54443 | 70897 | inactive
Aptx | DRSC15768 | – | 56190 | 67280 | inactive
CG13708 | DRSC08317 | – | 78913 | 79760 | inactive
ATPsynepsilonL | DRSC14548 | – | 47047 | 46703 | inactive
CG32104 | DRSC10127 | – | 54550 | 50217 | inactive
CG32104 | DRSC10128 | – | 55507 | 65600 | inactive
mxc | DRSC17819 | – | 2.82e5 | 2.73e5 | inactive
CG4815 | DRSC15653 | – | 59720 | 35410 | inactive
CG32816 | DRSC17337 | – | 2.13e5 | 2.07e5 | inactive
CG33169 | DRSC11853 | – | 65727 | 67067 | inactive
Toll-9 | DRSC11776 | – | 65187 | 67817 | inactive
CG1344 | DRSC04837 | – | 73390 | 57817 | inactive
OdsH | DRSC20263 | – | 3.32e5 | 2.82e5 | inactive
clt | DRSC04621 | – | 62063 | 51820 | inactive
CG3032 | DRSC18266 | – | 42380 | 48800 | inactive
CG10053 | DRSC12502 | – | 33473 | 22300 | inactive
CG15155 | DRSC02456 | – | 52090 | 61883 | inactive
CG6765 | DRSC10706 | – | 87743 | 93667 | inactive
cta | DRSC03769 | – | 67220 | 69683 | inactive
CIAPIN1 | DRSC03559 | – | 85380 | 53897 | inactive
DCTN4-p62 | DRSC06101 | – | 55207 | 48893 | inactive
CG15450 | DRSC20522 | – | 2.93e5 | 3.02e5 | inactive

Laid out differently: results already given.
{"Target gene":"vers","dsRNA":"DRSC10715","raw ATP luminescence, replicate 1":29230,"raw ATP luminescence, replicate 2":32860,"call":"inactive"}
{"Target gene":"Gadd45","dsRNA":"DRSC06033","raw ATP luminescence, replicate 1":40067,"raw ATP luminescence, replicate 2":78470,"call":"inactive"}
{"Target gene":"CG14795","dsRNA":"DRSC18513","raw ATP luminescence, replicate 1":35920,"raw ATP luminescence, replicate 2":35330,"call":"inactive"}
{"Target gene":"spi","dsRNA":"DRSC03618","raw ATP luminescence, replicate 1":64950,"raw ATP luminescence, replicate 2":55450,"call":"inactive"}
{"Target gene":"CG31205","dsRNA":"DRSC13438","raw ATP luminescence, replicate 1":1.50e5,"raw ATP luminescence, replicate 2":1.85e5,"call":"inactive"}
{"Target gene":"CG13314","dsRNA":"DRSC09985","raw ATP luminescence, replicate 1":67007,"raw ATP luminescence, replicate 2":82353,"call":"inactive"}
{"Target gene":"CG30339","dsRNA":"DRSC05168","raw ATP luminescence, replicate 1":85523,"raw ATP luminescence, replicate 2":79980,"call":"inactive"}
{"Target gene":"Cyp6w1","dsRNA":"DRSC04909","raw ATP luminescence, replicate 1":57697,"raw ATP luminescence, replicate 2":57140,"call":"inactive"}
{"Target gene":"SNRPG","dsRNA":"DRSC20207","raw ATP luminescence, replicate 1":3.52e5,"raw ATP luminescence, replicate 2":3.43e5,"call":"inactive"}
{"Target gene":"Acbp3","dsRNA":"DRSC11022","raw ATP luminescence, replicate 1":65190,"raw ATP luminescence, replicate 2":78223,"call":"inactive"}
{"Target gene":"mRpS26","dsRNA":"DRSC10823","SD above plate mean":"at least 2 SD above plate mean","raw ATP luminescence, replicate 1":1.04e5,"raw ATP luminescence, replicate 2":83867,"call":"inactive"}
{"Target gene":"Grl62c","dsRNA":"DRSC07964","raw ATP luminescence, replicate 1":1.73e5,"raw ATP luminescence, replicate 2":1.09e5,"call":"inactive"}
{"Target gene":"Orct","dsRNA":"DRSC16777","raw ATP luminescence, replicate 1":35823,"raw ATP luminescence, replicate 2":37037,"call":"inactive"}
{"Target gene":"CG8187","dsRNA":"DRSC07099","raw ATP luminescence, replicate 1":54443,"raw ATP luminescence, replicate 2":70897,"call":"inactive"}
{"Target gene":"Aptx","dsRNA":"DRSC15768","raw ATP luminescence, replicate 1":56190,"raw ATP luminescence, replicate 2":67280,"call":"inactive"}
{"Target gene":"CG13708","dsRNA":"DRSC08317","raw ATP luminescence, replicate 1":78913,"raw ATP luminescence, replicate 2":79760,"call":"inactive"}
{"Target gene":"ATPsynepsilonL","dsRNA":"DRSC14548","raw ATP luminescence, replicate 1":47047,"raw ATP luminescence, replicate 2":46703,"call":"inactive"}
{"Target gene":"CG32104","dsRNA":"DRSC10127","raw ATP luminescence, replicate 1":54550,"raw ATP luminescence, replicate 2":50217,"call":"inactive"}

More entries follow.
Target gene | dsRNA | SD above plate mean | raw ATP luminescence, replicate 1 | raw ATP luminescence, replicate 2 | call
Als2 | DRSC11806 | – | 18453 | 15423 | inactive
Tsp42En | DRSC06185 | – | 47993 | 61697 | inactive
Der-1 | DRSC00301 | – | 1.34e5 | 93113 | inactive
Hipk | DRSC07885 | – | 77860 | 1.27e5 | inactive
Hipk | DRSC08507 | – | 56333 | 72043 | inactive
U4-U6-60K | DRSC10624 | – | 47577 | 35160 | inactive
CG8405 | DRSC05599 | – | 58833 | 41190 | inactive
dpr7 | DRSC17109 | – | 2.24e5 | 1.93e5 | inactive
wgn | DRSC19998 | – | 1.46e5 | 1.60e5 | inactive
unpg | DRSC07713 | – | 47090 | 77050 | inactive
ppk24 | DRSC15093 | – | 55000 | 51960 | inactive
Sse | DRSC09746 | – | 42017 | 41720 | inactive
CG9643 | DRSC00722 | – | 26390 | 31770 | inactive
CtIP | DRSC11785 | – | 72093 | 62187 | inactive
CG14326 | DRSC14805 | – | 50230 | 43130 | inactive
Eig71Ek | DRSC11158 | – | 82773 | 60393 | inactive
Arp2 | DRSC19332 | – | 3.13e5 | 2.58e5 | inactive
CG34348 | DRSC19425 | – | 3.18e5 | 3.09e5 | inactive
CG34348 | DRSC19644 | – | 3.82e5 | 3.60e5 | inactive
CG13727 | DRSC10055 | – | 45047 | 40197 | inactive
H2.0 | DRSC03340 | – | 25527 | 34043 | inactive
CG4707 | DRSC04483 | – | 75367 | 64067 | inactive
bam | DRSC16907 | – | 76770 | 75680 | inactive
Dad | DRSC16642 | – | 45597 | 53973 | inactive
CG11629 | DRSC03695 | – | 61437 | 61303 | inactive
cry | DRSC16928 | – | 47990 | 53330 | inactive
DIP-epsilon | DRSC00932 | – | 3.01e5 | 2.99e5 | inactive
DIP-epsilon | DRSC02313 | – | 20037 | 22927 | inactive
Kul | DRSC15404 | – | 61140 | 45030 | inactive
Cyp4p1 | DRSC07372 | – | 44220 | 85517 | inactive
l(2)k05911 | DRSC02523 | – | 2.05e5 | 2.20e5 | inactive
roh | DRSC04003 | – | 81993 | 92213 | inactive
CG4390 | DRSC15572 | – | 36067 | 36710 | inactive
CG9737 | DRSC16550 | – | 43740 | 53010 | inactive
parvin | DRSC19468 | – | 1.79e5 | 2.10e5 | inactive
Alp10 | DRSC09749 | – | 69740 | 71997 | inactive
GNBP3 | DRSC11170 | – | 65117 | 63560 | inactive
CG8892 | DRSC03121 | – | 96153 | 67587 | inactive
CG32971 | DRSC01372 | – | 2.85e5 | 2.52e5 | inactive
nAChRalpha6 | DRSC01096 | – | 2.90e5 | 2.98e5 | inactive
nAChRalpha6 | DRSC02738 | – | 66523 | 56450 | inactive
CG6726 | DRSC16101 | – | 98560 | 66630 | inactive
CG10431 | DRSC02055 | – | 75293 | 78850 | inactive
CG6763 | DRSC16110 | – | 77740 | 69980 | inactive
dimm | DRSC03100 | – | 48003 | 55337 | inactive
CG12659 | DRSC17862 | – | 53190 | 59690 | inactive
CG11808 | DRSC06088 | – | 65113 | 68520 | inactive
Osi10b | DRSC12279 | – | 64597 | 79307 | inactive
CG30403 | DRSC03889 | – | 1.53e5 | 1.81e5 | inactive
CG32986 | DRSC02509 | – | 44760 | 55150 | inactive
CG7900 | DRSC16336 | – | 45810 | 46303 | inactive
CG31093 | DRSC15689 | – | 71540 | 61900 | inactive
Nup75 | DRSC06947 | – | 42023 | 70080 | inactive
TrpRS | DRSC14097 | – | 2213 | 53207 | inactive
CG43736 + CG33692 (retired record) | DRSC18370 | – | 31250 | 37780 | inactive
CG43736 + CG33692 (retired record) | DRSC18371 | – | 46880 | 54380 | inactive
Lcp65Ab2 + Lcp65Ab1 | DRSC10340 | – | 83697 | 81647 | inactive
Lcp65Ab2 + Lcp65Ab1 | DRSC10343 | – | 96593 | 99380 | inactive
CG7239 | DRSC03038 | – | 39003 | 22533 | inactive
CG13699 | DRSC10048 | – | 46080 | 48093 | inactive
CG34183 | DRSC01099 | – | 3.46e5 | 3.37e5 | inactive
Mayo | DRSC14300 | – | 64880 | 16200 | inactive
Pvf2 | DRSC00968 | – | 1.27e5 | 1.56e5 | inactive
Pvf2 | DRSC02283 | – | 23430 | 16867 | inactive
